# Test results from the supplement of paper PMC8256030.
# Values joined by “and” are separate entries in the source; they are usually repeats but may differ in a detail not shown here. Equal entries are not always repeated. This is one part of the list. Single values are uncertain here, since repeats match poorly.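 HEK293T cells were given each compound shortly before transfection with a reporter in which red mCherry is followed by the SARS-CoV-2 frameshift element and then GFP in the −1 frame, so GFP appears only after frameshifting.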
# System: SARS-CoV-2 -1 PRF reporter mCherry-FSE-GFP(-1)
# Test: percent effect, decrease of GFP/mCherry ratio (-1 PRF reporter) relative to controls; higher = stronger frameshift inhibition
# Conditions: 10 µM; 24 h; HEK293T
row,SMILES,percent effect
1,C[C@@H]1C[C@H]2[C@@H]3C[C@H](F)C4=CC(=O)C=C[C@]4(C)[C@@]3(F)[C@@H](O)C[C@]2(C)[C@@]1(O)C(=O)CO [flumetasone],-2.13% and -1.65%
2,CCCc1nc(C(C)(C)O)c(C(=O)OCc2oc(=O)oc2C)n1Cc1ccc(-c2ccccc2-c2nnn[nH]2)cc1 [olmesartan medoxomil],2% and -5.63% and 0.1%
3,Clc1ccc2c(c1)C(N1CCNCC1)=Nc1ccccc1O2 [amoxapine],-3.01% and 0.878%
4,CN[C@@H]1[C@@H](O[C@H]2O[C@H](CO)[C@@H](N)[C@H](O)[C@H]2O)OC2C[C@@H](N)[C@@H](O[C@H]3[C@H](O)[C@@H](O)[C@H](N)C[C@@H]3N)OC2[C@@H]1O (stereo partly specified) [apramycin],2.68% and -9.01%
5,NS(=O)(=O)c1cc2c(cc1Cl)NC(C(Cl)Cl)NS2(=O)=O (stereo unspecified) [trichlormethiazide],-0.687% and 1.05%
6,CCN1CCCC1CNC(=O)c1cc(S(=O)(=O)CC)c(N)cc1OC (stereo unspecified) [amisulpride],6.04% and -6.25%
7,O=C(O)CCCc1ccc(N(CCCl)CCCl)cc1 [chlorambucil],1.88% and -12.6%
8,Cn1c(=O)c2c(ncn2CC2OCCO2)n(C)c1=O [doxofylline],-1.46% and -13.9%
9,C#C[C@]1(O)CC[C@H]2[C@@H]3CCC4=CC(=O)CC[C@]4(C)[C@H]3CC[C@@]21C [ethisterone],-1.18% and -6.49%
10,COc1ccc(C2CNC(=O)C2)cc1OC1CCCC1 (stereo unspecified) [rolipram],-5.44% and -0.602%
11,COC1=C(OC)C(=O)C(CCCCCCCCCCO)=C(C)C1=O [idebenone],4.97% and -1.13%
12,CC[C@H](C)[C@H]1O[C@]2(C=C[C@@H]1C)C[C@@H]1C[C@@H](C/C=C(\C)[C@@H](O[C@H]3C[C@H](OC)[C@@H](O[C@H]4C[C@H](OC)[C@@H](O)[C@H](C)O4)[C@H](C)O3)[C@@H](C)/C=C/C=C3\CO[C@@H]4[C@H](O)C(C)=C[C@@H](C(=O)O1)[C@]34O)O2.CO[C@H]1C[C@H](O[C@H]2[C@H](C)O[C@@H](O[C@@H]3/C(C)=C/C[C@@H]4C[C@@H](C[C@]5(C=C[C@H](C)[C@@H](C(C)C)O5)O4)OC(=O)[C@@H]4C=C(C)[C@@H](O)[C@H]5OC/C(=C\C=C\[C@@H]3C)[C@]54O)C[C@@H]2OC)O[C@@H](C)[C@@H]1O,0.328% and -5.15%
13,Cc1c(N)nc([C@H](CC(N)=O)NC[C@H](N)C(N)=O)nc1C(=O)N[C@H](C(=O)N[C@H](C)[C@@H](O)[C@H](C)C(=O)N[C@H](C(=O)NCCc1nc(-c2nc(C(=O)NCCC[S+](C)C)cs2)cs1)[C@@H](C)O)[C@@H](OC1OC(CO)C(O)C(O)C1OC1OC(CO)C(O)C(OC(N)=O)C1O)c1cnc[nH]1 (stereo partly specified) [Bleomycin],-6.33% and 3.48%
14,C#C[C@]1(O)CC[C@H]2[C@@H]3CCc4cc(OC5CCCC5)ccc4[C@H]3CC[C@@]21C [quinestrol],-16.9% and -5.12%
15,O=C(O)c1ccccc1Nc1cccc(C(F)(F)F)c1 [flufenamic acid],2.95% and -0.283%
16,Cc1ccccc1C(OCCN(C)C)c1ccccc1 (stereo unspecified) [orphenadrine],-2.45% and 1.8%
17,CCCCNC(=O)NS(=O)(=O)c1ccc(C)cc1 [tolbutamide],-0.886% and -9.62%
18,O=P(O)(O)C(O)(Cc1cccnc1)P(=O)(O)O [risedronic acid],-1.43% and -4.07%
19,CC[C@H]1OC(=O)[C@H](C)[C@@H](O[C@H]2C[C@@](C)(OC)[C@@H](O)[C@H](C)O2)[C@H](C)[C@@H](O[C@@H]2O[C@H](C)C[C@H](N(C)C)[C@H]2O)[C@](C)(OC)C[C@@H](C)C(=O)[C@H](C)[C@@H](O)[C@]1(C)O [clarithromycin],-2.4% and -4.78%
20,CCCCCCCCCCCCCCCCOP(=O)([O-])OCC[N+](C)(C)C [miltefosine],-3.38% and -2.99%
21,CC(C)NCC(O)c1ccc(O)c(O)c1 (stereo unspecified) [isoprenaline],-3.51% and -0.417%
22,CC(=O)Nc1ccc(CC(=O)O)cc1 [actarit],1.11% and 3.88%
23,CC(=O)OCC(=O)[C@@]12OC3(CCCC3)O[C@@H]1C[C@H]1[C@@H]3CCC4=CC(=O)C=C[C@]4(C)[C@@]3(F)[C@@H](O)C[C@@]12C [amcinonide],-3.1% and -1.38%
24,CN(C)CCOc1ccc(/C(=C(/CCCl)c2ccccc2)c2ccccc2)cc1 [toremifene],-3.45% and -1.72% and -0.0728%
25,C[C@@H]1CN(c2c(F)c(N)c3c(=O)c(C(=O)O)cn(C4CC4)c3c2F)C[C@H](C)N1 [sparfloxacin],-12.3% and -9.04%
26,COc1cc(NS(=O)(=O)c2ccc(N)cc2)nc(OC)n1 [sulfadimethoxine],-5.52% and -1.28%

# Pulled by structure from above:
row,SMILES,percent effect
9,C#C[C@]1(O)CC[C@H]2[C@@H]3CCC4=CC(=O)CC[C@]4(C)[C@H]3CC[C@@]21C [ethisterone],-1.18% and -6.49%
16,Cc1ccccc1C(OCCN(C)C)c1ccccc1 (stereo unspecified) [orphenadrine],-2.45% and 1.8%
